Reference: the supplement of paper PMC4604168 (melanoma cell lines)
The other results are listed elsewhere or left out. Repeats are few or missing, and single values can be far off.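 The apoptosis fraction was the count of cleaved-PARP antibody-stained nuclei relative to all DNA-stained nuclei, imaged in 1,536-well plates. Screening doses were set so most cells survived, and baseline and induced cleaved-PARP levels vary greatly across cell lines.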

Key:
Experiment in all cases: cleaved PARP positive nuclei fraction relative to DMSO control; melanoma cells; higher = more apoptosis
Details in all cases: library dose: low library concentration; 72 h
MZ2-MEL = system: MZ2-MEL
MeWo = system: MeWo
RPMI7951 = system: RPMI7951
RVH-421 = system: RVH-421
SkMel28 = system: SkMel28
SkMel2 = system: SkMel2
SkMel30 = system: SkMel30
SkMel5 = system: SkMel5
UACC257 = system: UACC257
UACC62 = system: UACC62
WM115 = system: WM115
WM1716 = system: WM1716
WM1745 = system: WM1745
WM3526 = system: WM3526
WM3619 = system: WM3619
WM451Lu = system: WM451Lu

SMILES | cleaved PARP positive nuclei fraction (MZ2-MEL) [%] | cleaved PARP positive nuclei fraction (MeWo) [%] | cleaved PARP positive nuclei fraction (RPMI7951) [%] | cleaved PARP positive nuclei fraction (RVH-421) [%] | cleaved PARP positive nuclei fraction (SkMel28) [%] | cleaved PARP positive nuclei fraction (SkMel2) [%] | cleaved PARP positive nuclei fraction (SkMel30) [%] | cleaved PARP positive nuclei fraction (SkMel5) [%] | cleaved PARP positive nuclei fraction (UACC257) [%] | cleaved PARP positive nuclei fraction (UACC62) [%] | cleaved PARP positive nuclei fraction (WM115) [%] | cleaved PARP positive nuclei fraction (WM1716) [%] | cleaved PARP positive nuclei fraction (WM1745) [%] | cleaved PARP positive nuclei fraction (WM3526) [%] | cleaved PARP positive nuclei fraction (WM3619) [%] | cleaved PARP positive nuclei fraction (WM451Lu) [%]
CS(=O)(=O)c1ccc(C(=O)Nc2ccc(Cl)c(-c3ccccn3)c2)c(Cl)c1 [vismodegib] + Cc1ccc(NC(=O)c2cccc(N(C)C)c2)cc1NC(=O)c1ccc(O)cc1 [ZM336372] (first compound 1 µM, partner dose 2 µM) | 314 | 101 | 118 | 79 | 124 | 90.8 | 65.9 | 94.2 | 214 | 70.7 | 63.3 | 93.5 | 101 | 111 | 103 | 89.9
NC1(c2ccc(-c3nc4ccn5c(=O)[nH]nc5c4cc3-c3ccccc3)cc2)CCC1 + COc1cc2ncnc(Nc3ccc(Oc4ccccc4)cc3)c2cc1OC [SrcI1] (first compound 0.4 µM, partner dose 2 µM) | 167 | 33.8 | 85.4 | 214 | 219 | 100 | 129 | 31.4 | 156 | 458 | 188 | 418 | 110 | 127 | 113 | 80.1
C[C@@H](N)c1ccc(C(=O)Nc2ccnc3[nH]ccc23)cc1 + OCCn1cc(-c2cnc3nnn(Cc4ccc5ncccc5c4)c3n2)cn1 [PF04217903] (first compound 0.4 µM, partner dose 1 µM) | 120 | 273 | 144 | 298 | 109 | 51.5 | 125 | 112 | 32.1 | 205 | 58.7 | 219 | 124 | 51.1 | 112 | 73.1
NC(=O)c1ccc(N(C(N)=O)c2c(F)cccc2F)nc1-c1ccc(F)cc1F + Cc1cc([N+](=O)[O-])ccc1NS(=O)(=O)c1cc(Cl)ccc1Cl [FH535] (first compound 0.4 µM, partner dose 1 µM) | 90.4 | 64.6 | 28.3 | 148 | 225 | 58.9 | 780 | 80.2 | 145 | 230 | 18.6 | 63.3 | 97.2 | 266 | 75.2 | 35.6
CCCCCCCCc1ccc(CCC(N)(CO)CO)cc1 [fingolimod] + O=C(O)c1ccc(-c2c[nH]c3ncc(-c4ccccc4)cc23)cc1C1CCCC1 [GSK650394] (first compound 2 µM, partner dose 0.16 µM) | 146 | 32.2 | 179 | 56.1 | 59.9 | 69.1 | 66.4 | 78.7 | 80.2 | 94.2 | 63.2 | 87.8 | 112 | 34.2 | 98.8 | 65.1
C[C@]1(O)C[C@@H](c2nc(-c3ccc4ccc(-c5ccccc5)nc4c3)c3c(N)nccn32)C1 + CC1(C)NC(=O)N(c2ccc([N+](=O)[O-])c(C(F)(F)F)c2)C1=O [nilutamide] (first compound 0.4 µM, partner dose 1 µM) | 123 | 146 | 65.7 | 249 | 59.5 | 347 | 45.1 | 133 | 43.2 | 66.2 | 74.5 | 84.5 | 107 | 25.8 | 66.7 | 136
CC(=O)O[C@@]12CO[C@@H]1C[C@H](O)[C@@]1(C)C(=O)[C@H](O)C3=C(C)[C@@H](OC(=O)[C@H](O)[C@@H](NC(=O)OC(C)(C)C)c4ccccc4)C[C@@](O)([C@@H](OC(=O)c4ccccc4)[C@H]21)C3(C)C [Docetaxel] + CCc1ccc(CCOc2ccc(CC3SC(=O)NC3=O)cc2)nc1 [pioglitazone] (first compound 0.0001 µM, partner dose 2 µM) | 552 | 734 | 339 | 176 | 257 | 618 | 213 | 450 | 202 | 2000 | 514 | 1050 | 183 | 148 | 116 | 293
CC(=O)O[C@@]12CO[C@@H]1C[C@H](O)[C@@]1(C)C(=O)[C@H](O)C3=C(C)[C@@H](OC(=O)[C@H](O)[C@@H](NC(=O)OC(C)(C)C)c4ccccc4)C[C@@](O)([C@@H](OC(=O)c4ccccc4)[C@H]21)C3(C)C [Docetaxel] + O=C1NC(=O)/C(=C/c2ccc(-c3ccc(F)cc3O)o2)S1 [AS252424] (first compound 0.0001 µM, partner dose 1 µM) | 758 | 494 | 209 | 188 | 180 | 695 | 407 | 180 | 194 | 1310 | 298 | 483 | 142 | 302 | 136 | 388
NC(=O)c1ccc(N(C(N)=O)c2c(F)cccc2F)nc1-c1ccc(F)cc1F + COc1cc(N2CCC(N3CCN(C)CC3)CC2)ccc1Nc1ncc(Cl)c(Nc2ccccc2S(=O)(=O)C(C)C)n1 [NVP-TAE684] (first compound 0.4 µM, partner dose 0.08 µM) | 152 | 45.3 | 103 | 85 | 160 | 109 | 64.3 | 178 | 248 | 64.8 | 47 | 25.2 | 103 | 159 | 84.8 | 32.7
COc1ccc(C2=N[C@@H](c3ccc(Cl)cc3)[C@@H](c3ccc(Cl)cc3)N2C(=O)N2CCNC(=O)C2)c(OC(C)C)c1 [Nutlin-3] + O=C1NC(=O)/C(=C/c2ccc(-c3ccc(F)cc3O)o2)S1 [AS252424] (first compound 0.1 µM, partner dose 1 µM) | 31.3 | 157 | 178 | 135 | 193 | 266 | 42.8 | 157 | 116 | 120 | 142 | 251 | 85.8 | 53.4 | 130 | 76.3
Cn1sc(=O)n(Cc2ccccc2)c1=O + O=C(O)C(=O)Nc1sc2c(c1C(=O)O)CCNC2 [TCS401] (first compound 0.4 µM, partner dose 1.66667 µM) | 205 | 124 | 41 | 81.9 | 78.6 | 122 | 78.3 | 74.8 | 114 | 361 | 78.9 | 44.6 | 91.3 | 140 | 192 | 38.2
CCCCCCCCc1ccc(CCC(N)(CO)CO)cc1 [fingolimod] + COc1cc2ncnc(Nc3ccc(Oc4ccccc4)cc3)c2cc1OC [SrcI1] (first compound 2 µM, partner dose 2 µM) | 104 | 34.9 | 57.9 | 113 | 172 | 77.3 | 62.3 | 77.9 | 36.7 | 169 | 98.8 | 168 | 139 | 83.4 | 104 | 66.9
CCN(CC)CCNC(=O)c1c(C)[nH]c(/C=C2\C(=O)Nc3ccc(F)cc32)c1C [sunitinib] + O=S(=O)(c1ccccc1)N(CC(F)(F)F)c1ccc(C(O)(C(F)(F)F)C(F)(F)F)cc1 [T0901317] (first compound 0.4 µM, partner dose 1.4 µM) | 139 | 211 | 140 | 99.8 | 259 | 45 | 243 | 87.1 | 73.2 | 976 | 109 | 61.1 | 211 | 84.2 | 88.6 | 37.9
CCN(CC)CCNC(=O)c1c(C)[nH]c(/C=C2\C(=O)Nc3ccc(F)cc32)c1C [sunitinib] + CC(C)CCN1c2nc(Nc3cc(F)c(O)c(F)c3)ncc2N(C)C(=O)C1C [BID1870] (first compound 0.4 µM, partner dose 0.2 µM) | 185 | 122 | 145 | 29.7 | 204 | 101 | 114 | 36.4 | 128 | 184 | 151 | 115 | 93.1 | 103 | 211 | 60.3
CCN(CC)CCNC(=O)c1c(C)[nH]c(/C=C2\C(=O)Nc3ccc(F)cc32)c1C [sunitinib] + C[C@@H]1CCN(C(=O)CC#N)C[C@@H]1N(C)c1ncnc2[nH]ccc12 [CP690550] (first compound 0.4 µM, partner dose 1 µM) | 61.8 | 99.8 | 63.6 | 32.2 | 306 | 82 | 124 | 184 | 85.3 | 31.1 | 119 | 129 | 99.5 | 110 | 83.6 | 43.3
CN(c1ncccc1CNc1nc(Nc2ccc3c(c2)CC(=O)N3)ncc1C(F)(F)F)S(C)(=O)=O + COc1ccc(COc2ccc(Cc3cnc(N)nc3N)cc2OC)cc1 [GW2580] (first compound 0.08 µM, partner dose 1 µM) | 126 | 72.4 | 92.2 | 68.4 | 139 | 56.3 | 123 | 194 | 278 | 159 | 69.8 | 86.4 | 99.7 | 71.1 | 113 | 87.7
Cn1sc(=O)n(Cc2ccccc2)c1=O + COc1ccc(COc2ccc(Cc3cnc(N)nc3N)cc2OC)cc1 [GW2580] (first compound 0.4 µM, partner dose 1 µM) | 67.9 | 130 | 38 | 57.9 | 172 | 64.4 | 37.1 | 81.4 | 89.4 | 99.6 | 124 | 99.2 | 94.6 | 131 | 82 | 98.8
CCN(CC)CCNC(=O)c1c(C)[nH]c(/C=C2\C(=O)Nc3ccc(F)cc32)c1C [sunitinib] + CO[C@@H]1[C@H](N(C)C(=O)c2ccccc2)C[C@H]2O[C@]1(C)n1c3ccccc3c3c4c(c5c6ccccc6n2c5c31)C(=O)NC4 [Midostaurin] (first compound 0.4 µM, partner dose 0.08 µM) | 47 | 182 | 40.5 | 86.2 | 171 | 82.1 | 79.3 | 130 | 147 | 90.6 | 144 | 167 | 205 | 122 | 106 | 72.1

Complete entries from above. Order of values: cleaved PARP positive nuclei fraction (MZ2-MEL) [%]	cleaved PARP positive nuclei fraction (MeWo) [%]	cleaved PARP positive nuclei fraction (RPMI7951) [%]	cleaved PARP positive nuclei fraction (RVH-421) [%]	cleaved PARP positive nuclei fraction (SkMel28) [%]	cleaved PARP positive nuclei fraction (SkMel2) [%]	cleaved PARP positive nuclei fraction (SkMel30) [%]	cleaved PARP positive nuclei fraction (SkMel5) [%]	cleaved PARP positive nuclei fraction (UACC257) [%]	cleaved PARP positive nuclei fraction (UACC62) [%]	cleaved PARP positive nuclei fraction (WM115) [%]	cleaved PARP positive nuclei fraction (WM1716) [%]	cleaved PARP positive nuclei fraction (WM1745) [%]	cleaved PARP positive nuclei fraction (WM3526) [%]	cleaved PARP positive nuclei fraction (WM3619) [%]	cleaved PARP positive nuclei fraction (WM451Lu) [%]
CCN(CC)CCNC(=O)c1c(C)[nH]c(/C=C2\C(=O)Nc3ccc(F)cc32)c1C [sunitinib] + O=S(=O)(c1ccccc1)N(CC(F)(F)F)c1ccc(C(O)(C(F)(F)F)C(F)(F)F)cc1 [T0901317] (first compound 0.4 µM, partner dose 1.4 µM) is listed with 139	211	140	99.8	259	45	243	87.1	73.2	976	109	61.1	211	84.2	88.6	37.9
CCN(CC)CCNC(=O)c1c(C)[nH]c(/C=C2\C(=O)Nc3ccc(F)cc32)c1C [sunitinib] + CC(C)CCN1c2nc(Nc3cc(F)c(O)c(F)c3)ncc2N(C)C(=O)C1C [BID1870] (first compound 0.4 µM, partner dose 0.2 µM) is listed with 185	122	145	29.7	204	101	114	36.4	128	184	151	115	93.1	103	211	60.3
